Experimental findings from article PMC7969623 are described below.

These are yes or no findings as the source states them, for the method shown. Binding seen in cells or lysates may run through a third protein. A yes stands for co-enrichment or nearness to the bait. Other partners may have been found. Sequences can lack the tags named with a protein.

This assay deals with T1, PRRT2-HA (full length PRoline Rich Transmembrane protein 2 with HA tag fused at C terminus) (UniProt E9PUL5).
T1 sequence: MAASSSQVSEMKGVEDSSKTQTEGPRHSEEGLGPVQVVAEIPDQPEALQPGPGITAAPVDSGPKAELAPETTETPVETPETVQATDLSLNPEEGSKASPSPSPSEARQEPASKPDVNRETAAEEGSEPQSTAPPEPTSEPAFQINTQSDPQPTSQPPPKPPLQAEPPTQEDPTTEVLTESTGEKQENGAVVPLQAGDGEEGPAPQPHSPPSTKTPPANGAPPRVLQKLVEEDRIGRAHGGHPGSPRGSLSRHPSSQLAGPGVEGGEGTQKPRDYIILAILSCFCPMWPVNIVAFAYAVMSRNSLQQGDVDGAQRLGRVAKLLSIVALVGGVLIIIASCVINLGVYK
The experiment in a line: affinity purification with mass spectrometry; PRRT2-HA or BAP-HA from COS-7 held on anti-HA agarose, washed, incubated overnight at 4 °C with total mouse brain extract in lysis buffer (1% Triton X-100, 150 mM NaCl, 50 mM Tris-HCl pH 7.4, 1 mM EDTA); eluted with HA peptide; bands between 95 and 130 kDa cut from the Coomassie gel, LC-MS/MS; only the target purified.

B1: dynamin 1 (protein, UniProt P39053 1-867)
chain: MGNRGMEDLIPLVNRLQDAFSAIGQNADLDLPQIAVVGGQSAGKSSVLENFVGRDFLPRGSGIVTRRPLVLQLVNSTTEYAEFLHCKGKKFTDFEEVRLEIEAETDRVTGTNKGISPVPINLRVYSPHVLNLTLVDLPGMTKVPVGDQPPDIEFQIRDMLMQFVTKENCLILAVSPANSDLANSDALKIAKEVDPQGQRTIGVITKLDLMDEGTDARDVLENKLLPLRRGYIGVVNRSQKDIDGKKDITAALAAERKFFLSHPSYRHLADRMGTPYLQKVLNQQLTNHIRDTLPGLRNKLQSQLLSIEKEVDEYKNFRPDDPARKTKALLQMVQQFAVDFEKRIEGSGDQIDTYELSGGARINRIFHERFPFELVKMEFDEKELRREISYAIKNIHGIRTGLFTPDMAFETIVKKQVKKIREPCLKCVDMVISELISTVRQCTKKLQQYPRLREEMERIVTTHIREREGRTKEQVMLLIDIELAYMNTNHEDFIGFANAQQRSNQMNKKKTSGNQDEILVIRKGWLTINNIGIMKGGSKEYWFVLTAENLSWYKDDEEKEKKYMLSVDNLKLRDVEKGFMSSKHIFALFNTEQRNVYKDYRQLELACETQEEVDSWKASFLRAGVYPERVGDKEKASETEENGSDSFMHSMDPQLERQVETIRNLVDSYMAIVNKTVRDLMPKTIMHLMINNTKEFIFSELLANLYSCGDQNTLMEESAEQAQRRDEMLRMYHALKEALSIIGDINTTTVSTPMPPPVDDSWLQVQSVPAGRRSPTSSPTPQRRAPAVPPARPGSRGPAPGPPPAGSALGGAPPVPSRPGASPDPFGPPPQVPSRPNRAPPGVPSLGAWRLNSPQGKHENRAGKARL
On to B1, for which the binding entry was “binds”.

B2: Drebrin (protein, UniProt Q9QXS6 1-706)
chain: MAGVSFSGHRLELLAAYEEVIREESAADWALYTYEDGSDDLKLAASGEGGLQELSGHFENQKVMYGFCSVKDSQAALPKYVLINWVGEDVPDARKCACASHVAKVAEFFQGVDVIVNASSVEDIDAGAIGQRLSNGLARLSSPVLHRLRLREDENAEPVGTTYQKTDAAVEMKRINREQFWEQAKKEEELRKEEERKKALDARLRFEQERMEQERQEQEERERRYREREQQIEEHRRKQQSLEAEEAKRRLKEQSIFGDQRDEEEESQMKKSESEVEEAAAIIAQRPDNPREFFRQQERVASASGGSCDAPAPAPFNHRPGRPYCPFIKASDSGPSSSSSSSSSPPRTPFPYITCHRTPNLSSSLPCSHLDSHRRMAPTPIPTRSPSDSSTASTPIAEQIERALDEVTSSQPPPPPPPPPPTQEAQETTPSLDEELSKEAKVTAAPEVWAGCAAEPPQAQEPPLLQSSPLEDSMCTESPEQAALAAPAEPAASVTSVADVHAADTIETTTATTDTTIANNVTPAAASLIDLWPGNGEEASTLQAEPRVPTPPSGAEASLAEVPLLNEAAQEPLPPVGEGCANLLNFDELPEPPATFCDPEEEVGETLAASQVLTMPSALEEVDQVLEQELEPEPHLLTNGETTQKEGTQASEGYFSQSQEEEFAQSEEPCAKVPPPVFYNKPPEIDITCWDADPVPEEEEGFEGGD
Regarding B2, the binding result is recorded as “binds”.
